Measured values as given in PMC3034869.
These are yes or no findings as the source states them, for the method shown. Some results given as binding are weak or reduced against the parent protein; the word gives no strength.

The chains behind the UniProt entries cited, without tags or fusion partners. Where a name states a change or a piece, a line headed by the entry shows the natural chain unless it says otherwise. A line that says so, or that is headed by a name, gives the form on record, which may keep a tag or linker.
UniProt P02454: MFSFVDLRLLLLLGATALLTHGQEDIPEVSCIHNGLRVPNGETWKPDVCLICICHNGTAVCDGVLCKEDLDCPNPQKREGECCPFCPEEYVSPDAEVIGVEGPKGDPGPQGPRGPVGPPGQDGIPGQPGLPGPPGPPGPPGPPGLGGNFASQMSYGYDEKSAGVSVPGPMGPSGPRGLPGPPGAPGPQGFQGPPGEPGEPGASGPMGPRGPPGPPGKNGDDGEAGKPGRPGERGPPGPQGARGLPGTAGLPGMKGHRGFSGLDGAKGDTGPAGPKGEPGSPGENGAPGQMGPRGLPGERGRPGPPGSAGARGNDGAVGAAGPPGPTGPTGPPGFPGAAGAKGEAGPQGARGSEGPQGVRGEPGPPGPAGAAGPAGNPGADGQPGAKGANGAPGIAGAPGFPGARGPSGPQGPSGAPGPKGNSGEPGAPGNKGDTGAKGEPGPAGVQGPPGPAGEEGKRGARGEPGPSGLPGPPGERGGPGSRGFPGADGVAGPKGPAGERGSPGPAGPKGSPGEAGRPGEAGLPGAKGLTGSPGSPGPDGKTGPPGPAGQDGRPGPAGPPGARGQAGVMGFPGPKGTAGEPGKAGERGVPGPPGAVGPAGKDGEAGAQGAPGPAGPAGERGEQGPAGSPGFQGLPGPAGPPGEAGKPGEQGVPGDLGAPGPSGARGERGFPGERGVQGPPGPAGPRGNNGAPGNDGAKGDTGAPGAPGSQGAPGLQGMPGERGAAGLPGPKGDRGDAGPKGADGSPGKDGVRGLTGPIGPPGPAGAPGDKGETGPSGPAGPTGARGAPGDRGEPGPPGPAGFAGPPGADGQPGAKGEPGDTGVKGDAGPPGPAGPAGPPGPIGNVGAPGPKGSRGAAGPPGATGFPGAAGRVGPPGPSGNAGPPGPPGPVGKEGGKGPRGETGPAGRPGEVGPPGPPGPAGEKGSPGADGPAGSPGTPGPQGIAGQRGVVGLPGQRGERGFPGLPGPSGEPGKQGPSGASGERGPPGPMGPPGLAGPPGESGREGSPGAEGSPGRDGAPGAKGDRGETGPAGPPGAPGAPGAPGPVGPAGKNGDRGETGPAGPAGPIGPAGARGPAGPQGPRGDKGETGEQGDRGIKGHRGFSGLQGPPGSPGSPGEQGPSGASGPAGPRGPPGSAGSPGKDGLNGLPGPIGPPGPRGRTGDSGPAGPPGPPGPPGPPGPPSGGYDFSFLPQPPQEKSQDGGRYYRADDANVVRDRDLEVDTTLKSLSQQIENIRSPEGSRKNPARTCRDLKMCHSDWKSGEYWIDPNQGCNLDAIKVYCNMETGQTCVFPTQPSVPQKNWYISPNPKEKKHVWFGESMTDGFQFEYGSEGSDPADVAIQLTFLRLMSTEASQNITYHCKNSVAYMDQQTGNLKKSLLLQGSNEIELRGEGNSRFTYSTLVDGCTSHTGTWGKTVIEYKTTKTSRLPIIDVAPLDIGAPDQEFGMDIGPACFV
UniProt P02466: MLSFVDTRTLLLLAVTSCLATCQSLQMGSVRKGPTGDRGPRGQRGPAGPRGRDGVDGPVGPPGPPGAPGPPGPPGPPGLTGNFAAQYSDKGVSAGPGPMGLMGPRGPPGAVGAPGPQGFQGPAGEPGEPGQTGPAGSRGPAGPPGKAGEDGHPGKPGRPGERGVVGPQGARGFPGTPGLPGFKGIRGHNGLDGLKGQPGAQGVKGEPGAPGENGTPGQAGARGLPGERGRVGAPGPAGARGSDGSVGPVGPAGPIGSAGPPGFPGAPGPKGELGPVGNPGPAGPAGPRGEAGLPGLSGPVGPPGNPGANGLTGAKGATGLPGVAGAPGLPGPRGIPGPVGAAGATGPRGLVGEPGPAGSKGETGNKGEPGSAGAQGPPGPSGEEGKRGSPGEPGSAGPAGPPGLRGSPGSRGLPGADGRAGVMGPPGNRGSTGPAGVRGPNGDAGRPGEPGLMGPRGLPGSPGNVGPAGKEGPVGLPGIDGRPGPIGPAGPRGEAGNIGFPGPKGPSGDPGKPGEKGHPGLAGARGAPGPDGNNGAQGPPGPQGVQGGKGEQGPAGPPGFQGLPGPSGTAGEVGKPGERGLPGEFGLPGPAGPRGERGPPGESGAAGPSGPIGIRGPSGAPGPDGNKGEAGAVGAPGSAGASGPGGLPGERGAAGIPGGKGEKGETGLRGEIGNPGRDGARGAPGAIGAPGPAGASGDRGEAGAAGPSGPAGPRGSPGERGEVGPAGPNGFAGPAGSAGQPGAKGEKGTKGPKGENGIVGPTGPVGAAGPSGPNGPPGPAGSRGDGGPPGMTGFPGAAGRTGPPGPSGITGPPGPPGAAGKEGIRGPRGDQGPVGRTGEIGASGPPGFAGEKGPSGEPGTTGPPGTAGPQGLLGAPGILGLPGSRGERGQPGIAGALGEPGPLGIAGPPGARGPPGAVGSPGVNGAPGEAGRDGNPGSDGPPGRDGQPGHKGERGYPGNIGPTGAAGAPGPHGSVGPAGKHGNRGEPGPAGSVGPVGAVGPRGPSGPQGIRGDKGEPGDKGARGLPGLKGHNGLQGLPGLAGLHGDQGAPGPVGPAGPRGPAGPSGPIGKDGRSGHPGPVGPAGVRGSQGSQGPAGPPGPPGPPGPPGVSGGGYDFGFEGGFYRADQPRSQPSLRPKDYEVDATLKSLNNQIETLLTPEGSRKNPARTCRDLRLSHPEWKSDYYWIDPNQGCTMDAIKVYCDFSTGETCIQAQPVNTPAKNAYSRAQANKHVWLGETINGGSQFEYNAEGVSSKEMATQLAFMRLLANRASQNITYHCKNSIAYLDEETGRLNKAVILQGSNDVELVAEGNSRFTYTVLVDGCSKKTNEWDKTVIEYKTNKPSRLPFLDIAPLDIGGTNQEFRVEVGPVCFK
DDR1-Fc2 (Q08345, form named): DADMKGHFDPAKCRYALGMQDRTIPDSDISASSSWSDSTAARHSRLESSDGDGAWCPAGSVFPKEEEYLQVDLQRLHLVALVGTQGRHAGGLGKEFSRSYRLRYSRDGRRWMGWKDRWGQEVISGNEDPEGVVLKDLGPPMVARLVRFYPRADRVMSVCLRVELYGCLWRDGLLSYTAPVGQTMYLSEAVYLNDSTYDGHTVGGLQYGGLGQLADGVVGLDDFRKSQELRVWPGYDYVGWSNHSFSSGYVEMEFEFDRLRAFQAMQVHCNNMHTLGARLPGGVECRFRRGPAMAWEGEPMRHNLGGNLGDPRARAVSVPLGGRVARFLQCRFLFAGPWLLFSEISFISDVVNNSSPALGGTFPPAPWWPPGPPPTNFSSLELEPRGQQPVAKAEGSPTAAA

Molecular target: collagen I (acid-soluble from rat tail) (rat) (UniProt P02454+P02466)
Assay: ELISA; data not shown; new DDR-Fc proteins on collagens; both purified

- binding: binds
Substance: DDR1-Fc2 (from UniProt Q08345 19-416) (Fc fusion)
